These results are taken from PubChem BioAssay AID493014 (National Center for Advancing Translational Sciences (NCATS), 2011).

By AC50 is commonly meant the midpoint of the concentration-response curve, whichever way the signal moves.

The nature of the experiment: qHTS Assay to Find Inhibitors of Chronic Active B-Cell Receptor Signaling. As to conditions: ABC-DLBCL IkBa-CBG/CBR reporter, luminescence ratio (green luciferase fused to IkBa over red control in TMD8 lymphoma cells), 4 h. In a few lines: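 TMD8 human ABC-DLBCL cells with doxycycline-inducible IκBα–green luciferase fusion and unfused red luciferase, in 0.5% FBS medium; compounds up to 46 uM, 4 h at 37C. Green/red luminescence ratio, filter-overlap corrected, fitted to concentration-response curves.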

Where [1] appears, read: measured here: CBR red luminescence, cell number.
[2] abbreviates: measured here: IkBa-CBG green luminescence.

This is one part of the list. These are further read-outs of the screen, such as a control signal, another cell line or another target. No call is given for them. Compounds called inactive in the main read-out are mostly missing here. The note in brackets gives the kind of curve behind each potency; many fits are weak.

In the case of `O=C1NN(c2ccccc2)C(=O)/C1=C/c1ccc(-c2cccc(C(=O)O)c2)o1`, the AC50 under setting [1] was 10 µM [falling, partial curve, poor fit].
Still for that read-out and setting: as for `CC(=O)c1ccc(C(=O)N(Cc2cccnc2)c2nc3c(Cl)cccc3s2)cc1`, the figure is 11.2 µM [falling, partial curve]; as for `CC12CCC(C(=O)N(NC(=O)c3ccccc3Cl)C1=O)C2(C)C` (centres undefined), 4.61 µM [falling, full curve].
On to `CCN(CC)c1ccc(CNc2ccc(Br)cn2)cc1`, for which the AC50 was 29.1 µM [rising, single point] under setting [1] and 1.03 µM [rising, full curve, poor fit] under setting [2].
With `Cc1cc(CNC(=O)Cc2ccc(F)cc2)c2ccccc2n1`, under setting [2], the AC50 is 35.5 µM [falling, partial curve, poor fit].
For the molecule `CCN1/C(=C2\C(=O)N(c3ccccc3)N=C2C)C=Cc2cc(C)ccc21`, the AC50 under setting [1] is 18.4 µM [rising, partial curve, poor fit].
Turning to `Cc1nn(CC(=O)NC(C)c2ccccc2)c(=O)c2ccccc12` (centres undefined), under setting [1], the concentration at half-maximal activity (AC50) is 0.116 µM [falling, full curve, poor fit].
In the case of `O=C(CCS(=O)(=O)c1ccccc1)Nc1cccc(-c2nc3ccccc3s2)c1`, the AC50 is, setting by setting: under setting [1], 29.1 µM [falling, single point]; under setting [2], 29.1 µM [rising, partial curve, poor fit].
As to `CC[C@@H]1C=C(C(=O)O)[C@H](c2ccc3c(c2)OCO3)N1S(=O)(=O)c1ccc(C)cc1`, under setting [1], the AC50 is 25.9 µM [falling, single point].
For the molecule `CC(=O)c1ccc(OCCOc2ccc([N+](=O)[O-])cc2)cc1`, under setting [1], the AC50 was 25.1 µM [rising, partial curve, poor fit].
In the case of `Cc1cc(N)c2ccccc2n1`, the AC50 under setting [1] was 28.2 µM [falling, single point].
In the case of `O=C(/C=C/c1ccco1)Oc1cccc2cccnc12`, the AC50 by setting is: under setting [1], 35.5 µM [rising, single point]; under setting [2], 35.5 µM [falling, single point].
On to `C/C(CC(=O)Nc1ccc(Br)cc1)=N\NC(=O)c1cccc(O)c1`, for which the AC50 under setting [1] is 1 µM [falling, full curve].
On the same count and under the same terms, as for `Cc1cc(NC(=O)c2c(F)cccc2F)n(-c2nc3ccccc3[nH]2)n1`, the figure is 0.631 µM [falling, full curve, poor fit]; as for `CC(=O)Nc1ccc(S(=O)(=O)N(C)CC(=O)OCC(=O)Nc2cccnc2Cl)cc1`, 4.11 µM [rising, full curve, poor fit]; as for `Clc1cccc(-c2sc(Nc3ccccc3)n[n+]2-c2ccccc2)c1Cl`, 11.2 µM [falling, single point].
